Experimental data: PMC3861647
Results are given in words; binding and its absence hold for the method and conditions named. Binding can be weak; no strength is given. Sequences can lack the tags named with a protein.

Molecular target: T1, MBP-RU678 (human)
T1 sequence: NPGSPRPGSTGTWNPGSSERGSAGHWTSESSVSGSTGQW
Test: ELISA; fibrinogen (0.1 μM), MBP-fused fibrinogen fragments or casein blocking reagent immobilised in 96-well plates overnight at 4 °C; FLAG-tagged Srr-BR in PBS-T added, 1 h at 37 °C; detected with mouse anti-FLAG antibody; both purified

With “FLAG-tagged binding region of Srr1 (FLAG-Srr1-BR) (domain or fragment)” the binding was “binds”.
In the case of “FLAG-tagged binding region of Srr2 (FLAG-Srr2-BR) (Streptococcus agalactiae (strain COH1)) (domain or fragment)”, the binding was “binds”.
